From patent publication US10155021B2, “Antimicrobial 4-oxoquinolizines” (Emergent Product Development Gaithersburg Inc., priority 2011, dated 2018)
For at least one compound, name, drawing or mass did not settle the structure.

Test system: S. aureus ATCC 25923
Experiment: MIC, selected panel of Gram-positive and Gram-negative strains (Example 5)
Assay type: cell-based, Staphylococcus aureus

SMILES: Cc1c(-c2ccc(CN)cc2)c(F)cn2c(=O)c(C(=O)[O-])cc(C3CC3)c12.[K+] [Compound 6K salt]
- MIC S. aureus ATCC 25923: 0, 125 μg/mL
